For 40 molecules, TEAD-luciferase reporter activity results are on record in the supplement of paper PMC10735217.

The other results are listed elsewhere or left out. Single values are uncertain here, since repeats match poorly.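 Human kidney-derived cells stably carry a construct in which eight TEAD-binding elements drive luciferase, measured by luminescence in a drug-repurposing library screen. A hit is any compound whose signal exceeds the plate mean by more than five robust Z scores.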

This experiment relates to HEK293A TEAD-LUC reporter. In words: TEAD-luciferase reporter activity (YAP activation), robust Z score vs plate; higher = stronger YAP/TEAD activation. The settings on record: 24 h.

With `C=C(Cl)[C@](Cl)(CBr)CC[C@@H](Br)C(C)(C)Cl`, the TEAD-luciferase reporter activity by setting is: (compound concentration: 200 nM) inactive: -1.62; (compound concentration: 2 uM) inactive: 0.648; (compound concentration: 10 uM) inactive: -0.951.

With `Cc1ccc(/C(=C\CN2CCCC2)c2cccc(/C=C/C(=O)O)n2)cc1` [acrivastine], the TEAD-luciferase reporter activity is inactive: -1.44 (compound concentration: 200 nM), inactive: 0.679 (compound concentration: 2 uM) and inactive: -0.295 (compound concentration: 10 uM).

Consider `CCSc1ncccc1C(=O)O[C@H]1CO[C@H]2[C@@H]1OC[C@H]2O[N+](=O)[O-]`, for which the TEAD-luciferase reporter activity is, setting by setting: (compound concentration: 200 nM) inactive: -1.13; (compound concentration: 2 uM) inactive: 0.264; (compound concentration: 10 uM) inactive: 0.721.

Turning to `CCOC(=O)c1cccnc1N1CCN(Cc2c(F)cccc2Cl)CC1`, the TEAD-luciferase reporter activity was inactive: -0.975 (compound concentration: 200 nM), inactive: -0.358 (compound concentration: 2 uM) and inactive: 2.49 (compound concentration: 10 uM).

Turning to `O=C(c1ccccc1F)N1CCC(N2CCCC2=O)CC1`, the TEAD-luciferase reporter activity (compound concentration: 200 nM) is inactive: -1.8 and the TEAD-luciferase reporter activity (compound concentration: 10 uM) was inactive: 2.2.

For the molecule `O=C1c2c(O)cc(O)cc2O[C@H](c2cc(O)c(O)c(O)c2)[C@H]1O` [Dihydromyricetin], the TEAD-luciferase reporter activity (compound concentration: 2 uM) was active: 8.84.

Regarding `O=C1c2c(O)cc(O)cc2O[C@H](c2cc(O)c(O)c(O)c2)[C@H]1O` [Dihydromyricetin (Ampeloptin)], the TEAD-luciferase reporter activity was inactive: -0.129 (compound concentration: 200 nM) and inactive: 1.12 (compound concentration: 10 uM).

With `Nc1ccc(S(=O)(=O)c2ccc(N)cc2)cc1` [dapsone, SMP], the TEAD-luciferase reporter activity (compound concentration: 2 uM) is inactive: 0.61.

For `Nc1ccc(S(=O)(=O)c2ccc(N)cc2)cc1`, the TEAD-luciferase reporter activity runs as follows: (compound concentration: 200 nM) inactive: -0.575; (compound concentration: 10 uM) inactive: 0.906.

With `COc1ccc(CCN2CCC[C@@H]2CN2c3ccccc3COc3ccccc32)cc1`, the TEAD-luciferase reporter activity by setting is: (compound concentration: 200 nM) inactive: -1.37; (compound concentration: 2 uM) inactive: 1.02; (compound concentration: 10 uM) inactive: 4.96.

`CCC(C)C(CC)C(N)=O` (configuration not stated) [Valnoctamide]: the TEAD-luciferase reporter activity is inactive: -0.363 (compound concentration: 200 nM), inactive: -1.49 (compound concentration: 2 uM) and inactive: 0.175 (compound concentration: 10 uM).

Take `CCCCN(CCC1CCCCC1)Cc1ccc(C(=O)N[C@@H](CCSC)C(=O)OC)c(-c2ccccc2C)c1`: the TEAD-luciferase reporter activity by setting is: (compound concentration: 200 nM) inactive: -0.159; (compound concentration: 2 uM) inactive: 0.481; (compound concentration: 10 uM) inactive: 3.71.

For the molecule `O=C(O)c1ccc(C(F)(F)F)cc1-c1ccc2c(c1)OCC(Cc1ccccc1)C2O` (configuration not stated), the TEAD-luciferase reporter activity runs as follows: (compound concentration: 200 nM) inactive: -0.392; (compound concentration: 2 uM) inactive: -1.09; (compound concentration: 10 uM) inactive: 1.13.

Consider `CN/C(=N\C#N)NCCSCc1csc(N=C(N)N)n1`, for which the TEAD-luciferase reporter activity reads like this: (compound concentration: 200 nM) inactive: -0.552; (compound concentration: 2 uM) inactive: -1.19; (compound concentration: 10 uM) inactive: -1.71.

Turning to `COc1ccc(C2C(=O)c3ccccc3C2=O)cc1` [Pharmaprojects No. 1804], the TEAD-luciferase reporter activity was inactive: 0.112 (compound concentration: 200 nM), inactive: -0.771 (compound concentration: 2 uM) and inactive: 0.129 (compound concentration: 10 uM).

Take `O=C(O)C(Cl)(Cl)CCCC(Cl)(Cl)C(=O)O`: the TEAD-luciferase reporter activity runs as follows: (compound concentration: 200 nM) inactive: 1.41; (compound concentration: 2 uM) inactive: -2.73; (compound concentration: 10 uM) inactive: -0.645.

On to `N=C(N)NCCCCN`, for which the TEAD-luciferase reporter activity reads like this: (compound concentration: 200 nM) inactive: 0.0953; (compound concentration: 10 uM) inactive: -0.0754.

On to `COc1cc(C2OC(c3ccncc3)=NN2C(C)=O)cc(OC)c1OC` (configuration not stated), for which the TEAD-luciferase reporter activity by setting is: (compound concentration: 200 nM) inactive: -0.395; (compound concentration: 2 uM) inactive: -0.564; (compound concentration: 10 uM) inactive: 1.46.

Turning to `O=C(CCC(=O)N1CCN(CC(=O)N2CCCC2)CC1)c1ccc(Cl)cc1`, the TEAD-luciferase reporter activity by setting is: (compound concentration: 200 nM) inactive: -2.6; (compound concentration: 2 uM) inactive: -0.613; (compound concentration: 10 uM) inactive: -0.359.

For the molecule `CC(C)(NC(=O)[C@H](N)Cc1c[nH]c2ccccc12)C(=O)O`, the TEAD-luciferase reporter activity is inactive: -0.415 (compound concentration: 200 nM), inactive: -1.93 (compound concentration: 2 uM) and active: 5.05 (compound concentration: 10 uM).

With `CCS(=O)(=O)N1CC(CC#N)(n2cc(-c3ncnc4[nH]ccc34)cn2)C1` [baricitinib], under “compound concentration: 2 uM”, the TEAD-luciferase reporter activity is inactive: -1.07.

Take `CCS(=O)(=O)N1CC(CC#N)(n2cc(-c3ncnc4[nH]ccc34)cn2)C1` [Baricitinib]: the TEAD-luciferase reporter activity is inactive: -3.12 (compound concentration: 200 nM) and inactive: 1.02 (compound concentration: 10 uM).

Turning to `CO[C@H]1C[C@H]2CC(=O)C[C@H]2C1`, the TEAD-luciferase reporter activity was inactive: -1.78 (compound concentration: 200 nM), inactive: -2.16 (compound concentration: 2 uM) and inactive: 1.29 (compound concentration: 10 uM).

Turning to `COc1ccccc1OCC(O)COC(N)=O` (configuration not stated) [Methocarbamol], the TEAD-luciferase reporter activity (compound concentration: 2 uM) is inactive: 1.85.

As for `COc1ccccc1OCC(O)COC(N)=O` (configuration not stated), the TEAD-luciferase reporter activity (compound concentration: 200 nM) was inactive: -0.19 and the TEAD-luciferase reporter activity (compound concentration: 10 uM) is inactive: -1.18.

Take `CCCCOC(=O)COc1cc(-c2ccccc2S(C)(=O)=O)ccc1CCNS(=O)(=O)c1cc(C(N)=NO)ccc1O`: the TEAD-luciferase reporter activity runs as follows: (compound concentration: 200 nM) inactive: -1.12; (compound concentration: 2 uM) inactive: -0.0394; (compound concentration: 10 uM) inactive: -0.362.

Regarding `CC[C@H](C)[C@H](N)C(=O)N[C@@H](Cc1c[nH]c2ccccc12)C(=O)O`, the TEAD-luciferase reporter activity runs as follows: (compound concentration: 200 nM) inactive: 0.0212; (compound concentration: 2 uM) inactive: -1.65; (compound concentration: 10 uM) inactive: -0.387.

As for `CCCc1c(C(C)C)cc(C(C)C)c(C(C)O)c1-c1ccc(F)cc1` (configuration not stated), the TEAD-luciferase reporter activity (compound concentration: 200 nM) was inactive: -0.902, the TEAD-luciferase reporter activity (compound concentration: 2 uM) is inactive: -0.177 and the TEAD-luciferase reporter activity (compound concentration: 10 uM) is inactive: -2.11.

For `c1ccc(CC2=NCCN2)cc1`, for the setting “compound concentration: 2 uM”, the TEAD-luciferase reporter activity is inactive: 0.04.

On to `c1ccc(CC2=NCCN2)cc1` [Priscoline], for which the TEAD-luciferase reporter activity (compound concentration: 200 nM) is inactive: -0.0605 and the TEAD-luciferase reporter activity (compound concentration: 10 uM) was inactive: -1.07.

Consider `O=C(Nc1ccc(C2CCN([C@@H](C(=O)O)c3ccccc3)CC2)cc1)c1ccccc1-c1ccc(C(F)(F)F)cc1` [metabolite of Usistapide], for which the TEAD-luciferase reporter activity (compound concentration: 200 nM) is inactive: -1.02, the TEAD-luciferase reporter activity (compound concentration: 2 uM) is inactive: -1.64 and the TEAD-luciferase reporter activity (compound concentration: 10 uM) is inactive: 0.53.

For the molecule `CCS(=O)(=O)CCn1c([N+](=O)[O-])cnc1C`, the TEAD-luciferase reporter activity was inactive: 0.467 (compound concentration: 200 nM) and inactive: -0.471 (compound concentration: 10 uM).

Regarding `CCS(=O)(=O)CCn1c([N+](=O)[O-])cnc1C` [tinidazole], the TEAD-luciferase reporter activity (compound concentration: 2 uM) was inactive: -2.65.

As to `C/C(=C\c1ccc(C(=O)O)cc1)c1ccc(C(C)C)s1` [Namirotene], the TEAD-luciferase reporter activity is, setting by setting: (compound concentration: 200 nM) inactive: -0.987; (compound concentration: 2 uM) inactive: -1.75; (compound concentration: 10 uM) inactive: -0.633.

Turning to `COc1ccc(-n2c(C)cnc2O)cc1`, the TEAD-luciferase reporter activity was inactive: -0.0214 (compound concentration: 200 nM), active: 5.37 (compound concentration: 2 uM) and inactive: 1.19 (compound concentration: 10 uM).

`O=C(O)CCCN1C(=O)c2cccc3cccc(c23)C1=O`: the TEAD-luciferase reporter activity (compound concentration: 200 nM) was inactive: -1.09, the TEAD-luciferase reporter activity (compound concentration: 2 uM) is inactive: -2.82 and the TEAD-luciferase reporter activity (compound concentration: 10 uM) is inactive: -0.22.

Turning to `O=C1[N]C(=O)N(C2C[C@H](OCc3ccccc3)[C@@H](CO)O2)CC1C(F)(F)F` (some centres not stated), the TEAD-luciferase reporter activity runs as follows: (compound concentration: 200 nM) inactive: -1.32; (compound concentration: 2 uM) inactive: -0.691; (compound concentration: 10 uM) inactive: 0.328.

On to `CCOC(=O)[C@H](CCc1ccccc1)N[C@@H](C)C(=O)N1CCC[C@H]1C(=O)O`, for which the TEAD-luciferase reporter activity runs as follows: (compound concentration: 200 nM) inactive: 1.59; (compound concentration: 2 uM) inactive: -0.385; (compound concentration: 10 uM) inactive: -0.993.

For the molecule `CC(=O)O[C@H]1C[C@@H]2CC[C@@H]3[C@H](CC[C@@]4(C)[C@H]3C[C@H]([N+]3(C)CCCCC3)[C@@H]4OC(C)=O)[C@@]2(C)C[C@@H]1N1CCCCC1`, the TEAD-luciferase reporter activity is inactive: 0.715 (compound concentration: 200 nM) and inactive: 2.3 (compound concentration: 10 uM).

Consider `CC(=O)O[C@H]1C[C@@H]2CC[C@@H]3[C@H](CC[C@@]4(C)[C@H]3C[C@H]([N+]3(C)CCCCC3)[C@@H]4OC(C)=O)[C@@]2(C)C[C@@H]1N1CCCCC1` [vecuronium bromide], for which the TEAD-luciferase reporter activity (compound concentration: 2 uM) is inactive: -0.059.
